Results are given in words; binding and its absence hold for the method and conditions named. In cells and extracts the contact can be indirect. Here binding means that the protein was enriched with, or labelled near, the bait; the list need not be complete. Sequences can lack the tags named with a protein.
How the values were obtained:
[1] = target: T1, Strep-HA-tagged Dyrk2 (dual-specificity tyrosine-phosphorylation-regulated kinase 2), wild type (human) (UniProt Q92630); test: affinity purification with mass spectrometry; Strep/HA (SH)-tagged bait stably integrated in T-REx HEK293 Flp-In cells, induced 24 h; lysate (0.5% NP40, 50 mM HEPES pH 7.5, 150 mM NaCl, 50 mM NaF) on Strep-Tactin beads, eluted with 2 mM biotin; SAINTexpress score > 0.95 against Strep/HA-GFP controls and CRAPome filter; mutants compared with wild type by bait-normalised LFQ MS1 intensities
T1 sequence: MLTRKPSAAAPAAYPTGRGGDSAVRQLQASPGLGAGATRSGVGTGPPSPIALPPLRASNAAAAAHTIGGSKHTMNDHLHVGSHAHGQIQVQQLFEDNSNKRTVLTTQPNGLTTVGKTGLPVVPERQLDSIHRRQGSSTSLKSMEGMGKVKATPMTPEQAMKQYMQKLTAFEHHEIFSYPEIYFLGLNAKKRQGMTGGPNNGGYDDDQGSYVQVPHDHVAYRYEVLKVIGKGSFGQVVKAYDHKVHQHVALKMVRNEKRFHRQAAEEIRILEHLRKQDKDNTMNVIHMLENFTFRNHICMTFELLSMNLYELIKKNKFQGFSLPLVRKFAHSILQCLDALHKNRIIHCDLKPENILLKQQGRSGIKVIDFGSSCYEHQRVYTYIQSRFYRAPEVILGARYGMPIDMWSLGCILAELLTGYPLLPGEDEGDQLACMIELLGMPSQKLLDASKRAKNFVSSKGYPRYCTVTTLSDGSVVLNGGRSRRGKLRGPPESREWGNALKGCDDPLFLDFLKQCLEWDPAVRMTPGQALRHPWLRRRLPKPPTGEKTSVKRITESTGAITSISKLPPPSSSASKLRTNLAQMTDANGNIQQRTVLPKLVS

By UniProt entry, the sequences of proteins in these tests, tags left out.
UniProt Q16531: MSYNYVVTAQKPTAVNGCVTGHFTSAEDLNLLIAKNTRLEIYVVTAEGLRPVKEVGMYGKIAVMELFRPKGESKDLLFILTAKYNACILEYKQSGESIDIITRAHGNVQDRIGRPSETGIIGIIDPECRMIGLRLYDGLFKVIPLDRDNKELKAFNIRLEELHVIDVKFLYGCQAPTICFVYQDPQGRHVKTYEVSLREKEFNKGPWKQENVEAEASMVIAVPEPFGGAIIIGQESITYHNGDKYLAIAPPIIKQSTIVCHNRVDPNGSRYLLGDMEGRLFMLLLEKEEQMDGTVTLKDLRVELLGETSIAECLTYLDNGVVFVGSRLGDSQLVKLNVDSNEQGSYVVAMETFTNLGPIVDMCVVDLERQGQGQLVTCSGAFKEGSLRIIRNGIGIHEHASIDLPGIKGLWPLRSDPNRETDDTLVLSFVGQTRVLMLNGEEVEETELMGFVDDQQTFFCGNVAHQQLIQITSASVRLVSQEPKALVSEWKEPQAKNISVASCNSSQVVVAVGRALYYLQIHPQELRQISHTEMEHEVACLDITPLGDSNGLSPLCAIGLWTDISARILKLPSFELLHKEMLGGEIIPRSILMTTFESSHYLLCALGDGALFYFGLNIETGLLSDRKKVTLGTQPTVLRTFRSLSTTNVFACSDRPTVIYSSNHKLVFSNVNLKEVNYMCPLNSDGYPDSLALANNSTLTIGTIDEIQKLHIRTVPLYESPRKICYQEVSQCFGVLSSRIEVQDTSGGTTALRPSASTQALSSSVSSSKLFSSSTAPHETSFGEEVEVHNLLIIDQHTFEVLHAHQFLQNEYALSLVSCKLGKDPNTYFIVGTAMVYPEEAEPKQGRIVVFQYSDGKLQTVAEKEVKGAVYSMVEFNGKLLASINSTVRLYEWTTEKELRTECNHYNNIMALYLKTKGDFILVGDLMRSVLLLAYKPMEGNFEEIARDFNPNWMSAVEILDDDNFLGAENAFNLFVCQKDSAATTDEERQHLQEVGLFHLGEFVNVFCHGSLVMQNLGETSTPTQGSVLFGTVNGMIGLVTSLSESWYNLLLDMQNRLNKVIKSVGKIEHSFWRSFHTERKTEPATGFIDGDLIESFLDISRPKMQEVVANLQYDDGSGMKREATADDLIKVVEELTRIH
UniProt Q9Y4B6: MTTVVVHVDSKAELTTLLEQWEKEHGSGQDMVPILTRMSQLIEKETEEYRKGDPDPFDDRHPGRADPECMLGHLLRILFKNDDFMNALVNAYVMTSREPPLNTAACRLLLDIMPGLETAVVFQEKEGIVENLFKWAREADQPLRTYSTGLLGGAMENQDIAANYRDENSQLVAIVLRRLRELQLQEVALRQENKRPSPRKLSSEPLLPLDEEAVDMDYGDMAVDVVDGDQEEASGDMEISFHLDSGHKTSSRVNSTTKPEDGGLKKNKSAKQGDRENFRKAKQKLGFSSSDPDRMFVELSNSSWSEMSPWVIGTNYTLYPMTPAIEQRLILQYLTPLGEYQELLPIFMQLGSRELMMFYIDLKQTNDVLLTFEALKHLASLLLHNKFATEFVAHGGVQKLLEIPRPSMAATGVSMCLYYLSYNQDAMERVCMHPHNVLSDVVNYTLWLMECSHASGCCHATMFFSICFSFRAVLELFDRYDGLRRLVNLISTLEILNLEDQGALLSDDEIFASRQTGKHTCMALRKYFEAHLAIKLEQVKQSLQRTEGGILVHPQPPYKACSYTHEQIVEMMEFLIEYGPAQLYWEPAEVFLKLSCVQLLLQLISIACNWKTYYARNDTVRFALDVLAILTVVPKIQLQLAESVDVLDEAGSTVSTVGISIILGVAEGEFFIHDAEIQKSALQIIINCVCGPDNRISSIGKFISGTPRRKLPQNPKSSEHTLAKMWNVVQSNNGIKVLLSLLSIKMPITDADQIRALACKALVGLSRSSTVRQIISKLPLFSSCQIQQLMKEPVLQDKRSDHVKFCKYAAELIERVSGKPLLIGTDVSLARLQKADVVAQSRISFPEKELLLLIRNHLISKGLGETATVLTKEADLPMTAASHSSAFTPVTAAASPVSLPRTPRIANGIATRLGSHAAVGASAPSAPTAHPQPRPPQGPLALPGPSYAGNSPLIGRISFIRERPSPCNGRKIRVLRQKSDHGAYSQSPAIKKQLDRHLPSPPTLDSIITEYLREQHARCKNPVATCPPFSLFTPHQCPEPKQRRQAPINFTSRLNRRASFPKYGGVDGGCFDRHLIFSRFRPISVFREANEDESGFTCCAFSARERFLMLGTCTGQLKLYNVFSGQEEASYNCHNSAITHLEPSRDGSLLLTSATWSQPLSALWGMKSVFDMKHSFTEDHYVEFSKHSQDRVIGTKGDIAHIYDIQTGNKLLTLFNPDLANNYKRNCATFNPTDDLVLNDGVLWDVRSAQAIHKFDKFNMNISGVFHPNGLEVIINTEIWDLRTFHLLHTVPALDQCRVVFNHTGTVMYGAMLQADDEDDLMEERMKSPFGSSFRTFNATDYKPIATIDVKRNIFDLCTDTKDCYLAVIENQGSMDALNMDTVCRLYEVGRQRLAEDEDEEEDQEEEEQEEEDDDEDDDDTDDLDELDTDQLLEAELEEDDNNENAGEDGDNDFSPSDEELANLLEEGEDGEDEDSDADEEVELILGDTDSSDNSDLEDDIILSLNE

[2] = target: T2, FLAG-BirA*-tagged Dyrk2, wild type (human) (UniProt Q92630); test: proximity labelling; BioID-MS: FLAG-BirA*-tagged bait stably expressed in T-REx HEK293 Flp-In cells, 50 uM biotin for 24 h, RIPA lysate on Strep-Tactin beads, on-bead digest; SAINTexpress score = 1 against BirA*-GFP and no-biotin controls; mutants compared with wild type by bait-normalised LFQ MS1 intensities
T2 sequence: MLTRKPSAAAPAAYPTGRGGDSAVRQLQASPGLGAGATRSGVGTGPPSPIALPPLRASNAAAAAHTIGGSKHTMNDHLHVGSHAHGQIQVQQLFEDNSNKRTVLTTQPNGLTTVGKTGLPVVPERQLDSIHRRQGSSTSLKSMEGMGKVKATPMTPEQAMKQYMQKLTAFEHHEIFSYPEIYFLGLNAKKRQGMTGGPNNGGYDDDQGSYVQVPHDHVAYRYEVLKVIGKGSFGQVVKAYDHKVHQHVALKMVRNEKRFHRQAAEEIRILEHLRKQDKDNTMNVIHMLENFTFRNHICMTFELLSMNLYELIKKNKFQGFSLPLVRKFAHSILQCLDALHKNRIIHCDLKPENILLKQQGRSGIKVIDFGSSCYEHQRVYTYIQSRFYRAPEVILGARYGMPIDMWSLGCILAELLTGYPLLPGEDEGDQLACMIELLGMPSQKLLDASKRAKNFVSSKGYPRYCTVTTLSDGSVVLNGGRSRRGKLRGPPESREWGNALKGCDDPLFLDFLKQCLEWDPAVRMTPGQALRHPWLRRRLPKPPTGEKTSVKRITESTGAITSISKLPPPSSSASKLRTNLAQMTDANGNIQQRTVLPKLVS

Row | Molecule | binding [1] | binding [2]
1 | DDB1 (from UniProt Q16531 1-1140) | binds | binds
2 | VprBP (from UniProt Q9Y4B6 1-1507) | binds | binds
3 | NUP160 (protein, UniProt Q12769 1-1436) MLHLSAAPPAPPPEVTATARPCLCSVGRRGDGGKMAAAGALERSFVELSGAERERPRHFREFTVCSIGTANAVAGAVKYSESAGGFYYVESGKLFSVTRNRFIHWKTSGDTLELMEESLDINLLNNAIRLKFQNCSVLPGGVYVSETQNRVIILMLTNQTVHRLLLPHPSRMYRSELVVDSQMQSIFTDIGKVDFTDPCNYQLIPAVPGISPNSTASTAWLSSDGEALFALPCASGGIFVLKLPPYDIPGMVSVVELKQSSVMQRLLTGWMPTAIRGDQSPSDRPLSLAVHCVEHDAFIFALCQDHKLRMWSYKEQMCLMVADMLEYVPVKKDLRLTAGTGHKLRLAYSPTMGLYLGIYMHAPKRGQFCIFQLVSTESNRYSLDHISSLFTSQETLIDFALTSTDIWALWHDAENQTVVKYINFEHNVAGQWNPVFMQPLPEEEIVIRDDQDPREMYLQSLFTPGQFTNEALCKALQIFCRGTERNLDLSWSELKKEVTLAVENELQGSVTEYEFSQEEFRNLQQEFWCKFYACCLQYQEALSHPLALHLNPHTNMVCLLKKGYLSFLIPSSLVDHLYLLPYENLLTEDETTISDDVDIARDVICLIKCLRLIEESVTVDMSVIMEMSCYNLQSPEKAAEQILEDMITIDVENVMEDICSKLQEIRNPIHAIGLLIREMDYETEVEMEKGFNPAQPLNIRMNLTQLYGSNTAGYIVCRGVHKIASTRFLICRDLLILQQLLMRLGDAVIWGTGQLFQAQQDLLHRTAPLLLSYYLIKWGSECLATDVPLDTLESNLQHLSVLELTDSGALMANRFVSSPQTIVELFFQEVARKHIISHLFSQPKAPLSQTGLNWPEMITAITSYLLQLLWPSNPGCLFLECLMGNCQYVQLQDYIQLLHPWCQVNVGSCRFMLGRCYLVTGEGQKALECFCQAASEVGKEEFLDRLIRSEDGEIVSTPRLQYYDKVLRLLDVIGLPELVIQLATSAITEAGDDWKSQATLRTCIFKHHLDLGHNSQAYEALTQIPDSSRQLDCLRQLVVVLCERSQLQDLVEFPYVNLHNEVVGIIESRARAVDLMTHNYYELLYAFHIYRHNYRKAGTVMFEYGMRLGREVRTLRGLEKQGNCYLAALNCLRLIRPEYAWIVQPVSGAVYDRPGASPKRNHDGECTAAPTNRQIEILELEDLEKECSLARIRLTLAQHDPSAVAVAGSSSAEEMVTLLVQAGLFDTAISLCQTFKLPLTPVFEGLAFKCIKLQFGGEAAQAEAWAWLAANQLSSVITTKESSATDEAWRLLSTYLERYKVQNNLYHHCVINKLLSHGVPLPNWLINSYKKVDAAELLRLYLNYDLLEEAVDLVSEYVDAVLGKGHQYFGIEFPLSATAPMVWLPYSSIDQLLQALGENSANSHNIALSQKILDKLEDYQQKVDKATRDLLYRRTL | – | binds
4 | NUP96 (protein, UniProt P52948 881-1817) SKYGLQDSDEEEEEHPSKTSTKKLKTAPLPPASQTTPLQMALNGKPAPPPQSQSPEVEQLGRVVELDSDMVDITQEPVLDTMLEESMPEDQEPVSASTHIASSLGINPHVLQIMKASLLTDEEDVDMALDQRFSRLPSKADTSQEICSPRLPISASHSSKTRSLVGGLLQSKFTSGAFLSPSVSVQECRTPRAASLMNIPSTSSWSVPPPLTSVFTMPSPAPEVPLKTVGTRRQLGLVPREKSVTYGKGKLLMDMALFMGRSFRVGWGPNWTLANSGEQLNGSHELENHQIADSMEFGFLPNPVAVKPLTESPFKVHLEKLSLRQRKPDEDMKLYQTPLELKLKHSTVHVDELCPLIVPNLGVAVIHDYADWVKEASGDLPEAQIVKHWSLTWTLCEALWGHLKELDSQLNEPREYIQILERRRAFSRWLSCTATPQIEEEVSLTQKNSPVEAVFSYLTGKRISEACSLAQQSGDHRLALLLSQFVGSQSVRELLTMQLVDWHQLQADSFIQDERLRIFALLAGKPVWQLSEKKQINVCSQLDWKRSLAIHLWYLLPPTASISRALSMYEEAFQNTSDSDRYACSPLPSYLEGSGCVIAEEQNSQTPLRDVCFHLLKLYSDRHYDLNQLLEPRSITADPLDYRLSWHLWEVLRALNYTHLSAQCEGVLQASYAGQLESEGLWEWAIFVLLHIDNSGIREKAVRELLTRHCQLLETPESWAKETFLTQKLRVPAKWIHEAKAVRAHMESDKHLEALCLFKAEHWNRCHKLIIRHLASDAIINENYDYLKGFLEDLAPPERSSLIQDWETSGLVYLDYIRVIEMLRHIQQVDCSGNDLEQLHIKVTSLCSRIEQIQCYSAKDRLAQSDMAKRVANLLRVVLSLHHPPDRTSDSTPDPQRVPLRLLAPHIGRLPMPEDYAMDELRSLTQSYLRELAVGSL | – | binds
5 | NUP133 (protein, UniProt Q8WUM0 1-1156) MFPAAPSPRTPGTGSRRGPLAGLGPGSTPRTASRKGLPLGSAVSSPVLFSPVGRRSSLSSRGTPTRMFPHHSITESVNYDVKTFGSSLPVKVMEALTLAEVDDQLTINIDEGGWACLVCKEKLIIWKIALSPITKLSVCKELQLPPSDFHWSADLVALSYSSPSGEAHSTQAVAVMVATREGSIRYWPSLAGEDTYTEAFVDSGGDKTYSFLTAVQGGSFILSSSGSQLIRLIPESSGKIHQHILPQGQGMLSGIGRKVSSLFGILSPSSDLTLSSVLWDRERSSFYSLTSSNISKWELDDSSEKHAYSWDINRALKENITDAIWGSESNYEAIKEGVNIRYLDLKQNCDGLVILAAAWHSADNPCLIYYSLITIEDNGCQMSDAVTVEVTQYNPPFQSEDLILCQLTVPNFSNQTAYLYNESAVYVCSTGTGKFSLPQEKIVFNAQGDSVLGAGACGGVPIIFSRNSGLVSITSRENVSILAEDLEGSLASSVAGPNSESMIFETTTKNETIAQEDKIKLLKAAFLQYCRKDLGHAQMVVDELFSSHSDLDSDSELDRAVTQISVDLMDDYPASDPRWAESVPEEAPGFSNTSLIILHQLEDKMKAHSFLMDFIHQVGLFGRLGSFPVRGTPMATRLLLCEHAEKLSAAIVLKNHHSRLSDLVNTAILIALNKREYEIPSNLTPADVFFREVSQVDTICECLLEHEEQVLRDAPMDSIEWAEVVINVNNILKDMLQAASHYRQNRNSLYRREESLEKEPEYVPWTATSGPGGIRTVIIRQHEIVLKVAYPQADSNLRNIVTEQLVALIDCFLDGYVSQLKSVDKSSNRERYDNLEMEYLQKRSDLLSPLLSLGQYLWAASLAEKYCDFDILVQMCEQTDNQSRLQRYMTQFADQNFSDFLFRWYLEKGKRGKLLSQPISQHGQLANFLQAHEHLSWLHEINSQELEKAHATLLGLANMETRYFAKKKTLLGLSKLAALASDFSEDMLQEKIEEMAEQERFLLHQETLPEQLLAEKQLNLSAMPVLTAPQLIGLYICEENRRANEYDFKKALDLLEYIDEEEDININDLKLEILCKALQRDNWSSSDGKDDPIEVSKDSIFVKILQKLLKDGIQLSEYLPEVKDLLQADQLGSLKSNPYFEFVLKANYEYYVQGQI | – | binds
6 | NUP107 (protein, UniProt P57740 1-925) MDRSGFGEISSPVIREAEVTRTARKQSAQKRVLLQASQDENFGNTTPRNQVIPRTPSSFRQPFTPTSRSLLRQPDISCILGTGGKSPRLTQSSGFFGNLSMVTNLDDSNWAAAFSSQRSGLFTNTEPHSITEDVTISAVMLREDDPGEAASMSMFSDFLQSFLKHSSSTVFDLVEEYENICGSQVNILSKIVSRATPGLQKFSKTASMLWLLQQEMVTWRLLASLYRDRIQSALEEESVFAVTAVNASEKTVVEALFQRDSLVRQSQLVVDWLESIAKDEIGEFSDNIEFYAKSVYWENTLHTLKQRQLTSYVGSVRPLVTELDPDAPIRQKMPLDDLDREDEVRLLKYLFTLIRAGMTEEAQRLCKRCGQAWRAATLEGWKLYHDPNVNGGTELEPVEGNPYRRIWKISCWRMAEDELFNRYERAIYAALSGNLKQLLPVCDTWEDTVWAYFRVMVDSLVEQEIQTSVATLDETEELPREYLGANWTLEKVFEELQATDKKRVLEENQEHYHIVQKFLILGDIDGLMDEFSKWLSKSRNNLPGHLLRFMTHLILFFRTLGLQTKEEVSIEVLKTYIQLLIREKHTNLIAFYTCHLPQDLAVAQYALFLESVTEFEQRHHCLELAKEADLDVATITKTVVENIRKKDNGEFSHHDLAPALDTGTTEEDRLKIDVIDWLVFDPAQRAEALKQGNAIMRKFLASKKHEAAKEVFVKIPQDSIAEIYNQCEEQGMESPLPAEDDNAIREHLCIRAYLEAHETFNEWFKHMNSVPQKPALIPQPTFTEKVAHEHKEKKYEMDFGIWKGHLDALTADVKEKMYNVLLFVDGGWMVDVREDAKEDHERTHQMVLLRKLCLPMLCFLLHTILHSTGQYQECLQLADMVSSERHKLYLVFSKEELRKLLQKLRESSLMLLDQGLDPLGYEIQL | – | binds
7 | NUP85 (protein, UniProt Q9BW27 1-656) MEELDGEPTVTLIPGVNSKKNQMYFDWGPGEMLVCETSFNKKEKSEMVPSCPFIYIIRKDVDVYSQILRKLFNESHGIFLGLQRIDEELTGKSRKSQLVRVSKNYRSVIRACMEEMHQVAIAAKDPANGRQFSSQVSILSAMELIWNLCEILFIEVAPAGPLLLHLLDWVRLHVCEVDSLSADVLGSENPSKHDSFWNLVTILVLQGRLDEARQMLSKEADASPASAGICRIMGDLMRTMPILSPGNTQTLTELELKWQHWHEECERYLQDSTFATSPHLESLLKIMLGDEAALLEQKELLSNWYHFLVTRLLYSNPTVKPIDLHYYAQSSLDLFLGGESSPEPLDNILLAAFEFDIHQVIKECSIALSNWWFVAHLTDLLDHCKLLQSHNLYFGSNMREFLLLEYASGLFAHPSLWQLGVDYFDYCPELGRVSLELHIERIPLNTEQKALKVLRICEQRQMTEQVRSICKILAMKAVRNNRLGSALSWSIRAKDAAFATLVSDRFLRDYCERGCFSDLDLIDNLGPAMMLSDRLTFLGKYREFHRMYGEKRFADAASLLLSLMTSRIAPRSFWMTLLTDALPLLEQKQVIFSAEQTYELMRCLEDLTSRRPVHGESDTEQLQDDDIETTKVEMLRLSLARNLARAIIREGSLEGS | – | binds

Source: PMC7366679
